Assay results as given in doi:10.1101/2024.03.28.587199.
Results are given in words; binding and its absence hold for the method and conditions named. Binding seen in cells or lysates may run through a third protein. Some binding calls cover weakened binding; strength is not graded here.

Biological target: BRASSINOSTEROID … 1 (BRI1)-GFP (Arabidopsis thaliana) (UniProt O22476)
Experiment: co-IP

binding: binds
B1: BRASSINOSTEROID … 1 (BRI1)-ASSOCIATED KINASE 1 (BAK1) (receptor, UniProt Q94F62 26-615)
chain: NAEGDALSALKNSLADPNKVLQSWDATLVTPCTWFHVTCNSDNSVTRVDLGNANLSGQLVMQLGQLPNLQYLELYSNNITGTIPEQLGNLTELVSLDLYLNNLSGPIPSTLGRLKKLRFLRLNNNSLSGEIPRSLTAVLTLQVLDLSNNPLTGDIPVNGSFSLFTPISFANTKLTPLPASPPPPISPTPPSPAGSNRITGAIAGGVAAGAALLFAVPAIALAWWRRKKPQDHFFDVPAEEDPEVHLGQLKRFSLRELQVASDNFSNKNILGRGGFGKVYKGRLADGTLVAVKRLKEERTQGGELQFQTEVEMISMAVHRNLLRLRGFCMTPTERLLVYPYMANGSVASCLRERPESQPPLDWPKRQRIALGSARGLAYLHDHCDPKIIHRDVKAANILLDEEFEAVVGDFGLAKLMDYKDTHVTTAVRGTIGHIAPEYLSTGKSSEKTDVFGYGVMLLELITGQRAFDLARLANDDDVMLLDWVKGLLKEKKLEALVDVDLQGNYKDEEVEQLIQVALLCTQSSPMERPKMSEVVRMLEGDGLAERWEEWQKEEMFRQDFNYPTHHPAVSGWIIGDSTSQIENEYPSGPR
